“And” between values parts separate entries of the source, which are not always exact repeats. Equal entries are not always repeated. Structures can show the parent of a compound that is named as a salt. ± gives the standard deviation of the averaged measurements. The list shows a part of the results. Part of the spread comes from offsets between plates or batches.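 Primary human stellate myofibroblasts activated in culture; inactivation shown by regained lipid droplets. Readout: fraction of Hoechst-counted cells exceeding a per-plate Bodipy threshold, duplicate wells, each plate with DMSO negative and nortriptyline positive controls. Hits: control-normalized score beyond the plate's top-tenth-percentile nortriptyline wells, or among its three best wells. Final well concentrations unstated.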

The subject of this test is primary human hepatic stellate cells (donor 1). Description: percent Bodipy-positive cells; higher = more lipid droplet accumulation. Conditions: 48 h.
The mark [1] stands for this setting: library stock concentration: 3.33 mM.
Where [2] appears, read: library stock concentration: 10 mM.
[3] abbreviates: library stock concentration: 1 mM.
The mark [4] stands for this setting: library stock concentration: 80 uM.
[5] abbreviates: library stock concentration: 400 uM.
Setting [6] is: library stock concentration: 2 mM.

Take `CC(C)(C)c1cc(/C=C(\C#N)C(N)=S)cc(C(C)(C)C)c1O` [Tyrphostin AG 879]: the “percent Bodipy-positive cells” value under setting [1] came to 13 ± 0.73%; the “percent Bodipy-positive cells” value under setting [2] is 20.6% and 43.9%.
Turning to `O=C(O)CCC/C=C/C[C@@H]1[C@@H](/C=C/[C@@H](O)COc2cccc(C(F)(F)F)c2)[C@H](O)C[C@@H]1O` [5-trans Fluprostenol], the “percent Bodipy-positive cells” value under setting [3] worked out at 19.8 ± 0.25%.
Consider `CCC(=O)NCC[C@@H]1CCc2ccc3c(c21)CCO3` [Ramelteon], for which the “percent Bodipy-positive cells” value under setting [1] was 28.45 ± 0.24% and the “percent Bodipy-positive cells” value (library stock concentration: 7.7 mM) was 16.9 ± 6.3%.
In the case of `Cc1cc(CS(=O)(=O)c2ccccc2)cc(OCc2ccc(CN3CCC[C@@H]3CO)cc2)c1`, under setting [2], the “percent Bodipy-positive cells” value came out at 95.81 ± 0.77%.
On to `COC1=CC(=O)C[C@@H](C)[C@]12Oc1c(Cl)c(OC)cc(OC)c1C2=O` [Griseofulvin], for which the “percent Bodipy-positive cells” value is 12.5 ± 0.58%. Moreover, the “percent Bodipy-positive cells” value under setting [1] was 7.79 ± 1.1%. In addition, for the setting “library stock concentration: 5.7 mM”, the “percent Bodipy-positive cells” value came to 3.14 ± 0.45%.
For `CN(C)CCC(c1ccc(Cl)cc1)c1ccccn1` (stereo not drawn) [Chlorpheniramine maleate], the “percent Bodipy-positive cells” value amounted to 52 ± 2.5%. Besides, the “percent Bodipy-positive cells” value (library stock concentration: 7.3 mM) was 23.1 ± 1.6%.
With `CN(C)CCC(c1ccc(Cl)cc1)c1ccccn1` (stereo not drawn) [Chlorpheniramine Maleate], the “percent Bodipy-positive cells” value came out at 24.4 ± 2.5% under setting [1] and 40.6 ± 9.1% under setting [2].
Consider `CN(C)CCC(c1ccc(Cl)cc1)c1ccccn1` (stereo not drawn) [Chlorpheniramine], for which the “percent Bodipy-positive cells” value under setting [2] is 32.1 ± 1.2%.
For the compound `CC[C@]1(O)C[C@H]2CN(CCc3c([nH]c4ccccc34)[C@@](C(=O)OC)(c3cc4c(cc3OC)N(C)[C@H]3[C@@](O)(C(N)=O)[C@H](O)[C@]5(CC)C=CCN6CC[C@]43[C@@H]65)C2)C1.O=S(=O)(O)O`, under “library stock concentration: 9.7 mM”, the “percent Bodipy-positive cells” value was 97.36 ± 0.4%.
Take `COc1cc(N)c(Cl)cc1C(=O)NC1CCN(CCCOc2ccc(F)cc2)CC1OC` (stereo not drawn) [Cisapride]: the “percent Bodipy-positive cells” value was 54.9 ± 2.6%. The “percent Bodipy-positive cells” value under setting [2] stood at 34.1 ± 14%.
Take `C[C@H](O)C(=O)C1=Nc2c(nc(N)[nH]c2=O)NC1` [Sepiapterin]: the “percent Bodipy-positive cells” value under setting [2] was 18.9 ± 0.2%.
For `CCCCCCCCC=CCCCCCCCCCCCC(N)=O` [13-Docosenamide], the “percent Bodipy-positive cells” value under setting [3] is 7.55 ± 3%.
As to `CN1Cc2sccc2C(c2ccc(O)c(O)c2)C1` (stereo not drawn), the “percent Bodipy-positive cells” value under setting [2] was determined as 36 ± 4.7%.
In the case of `COc1ccccc1N1CCN(CCN2C(=O)CC3(CCCC3)CC2=O)CC1`, the “percent Bodipy-positive cells” value runs as follows: under setting [1], 5.7 ± 0.7%; under setting [2], 14.2 ± 0.21%.
`CCN(CC)CCCCC1CCN(CC(=O)N2c3ccccc3C(=O)Nc3cccnc32)CC1`: the “percent Bodipy-positive cells” value under setting [2] is 25.6 ± 3.8%.
Consider `OCC(O)CN1CCN(c2ccccc2)CC1` (stereo not drawn) [Dropropizine], for which the “percent Bodipy-positive cells” value under setting [1] is 8.36 ± 1.7%; the “percent Bodipy-positive cells” value under setting [2] is 23.7% and 28.4%.
Consider `NC1=N[C@@]2(c3cc(NC(=O)c4ccc(F)cn4)ccc3F)COC[C@H]2CS1`, for which the “percent Bodipy-positive cells” value came out at 15.5 ± 7.4% under setting [1] and 44.1 ± 2.4% under setting [2].
For the compound `CCCCC[C@H](O)/C=C/[C@@H]1[C@H]2C/C(=C/CCCC(=O)O)O[C@H]2C[C@H]1O` [Prostaglandin I2 (sodium salt)], the “percent Bodipy-positive cells” value under setting [3] came to 13 ± 0.48%.
Regarding `CCCCC[C@H](O)/C=C/[C@@H]1[C@H]2C/C(=C/CCCC(=O)O)O[C@H]2C[C@H]1O` [Prostaglandin I2], the “percent Bodipy-positive cells” value under setting [3] amounted to 16.1 ± 15%.
In the case of `COc1ccc(COc2cc3oc(=O)c4cc(C(C)O)ccc4c3cc2OC)cc1` (stereo not drawn), the “percent Bodipy-positive cells” value runs as follows: under setting [4], 6.7 ± 2.2%; under setting [5], 8.44 ± 0.22%; under setting [6], 6.97 ± 0.74%; under setting [2], 46.2 ± 24%.
Turning to `COc1ccc(COc2cc3oc(=O)c4cc(C(C)O)ccc4c3cc2OC)cc1` (stereo not drawn) [Palomid 529 (P529)], the “percent Bodipy-positive cells” value by setting is: under setting [1], 12.8 ± 2.2%; under setting [2], 27.6 ± 2.1%.
Consider `O=C(O)c1ccccc1Nc1cccc(OCc2ccc3ccccc3n2)c1` [SR 2640 hydrochloride], for which the “percent Bodipy-positive cells” value under setting [2] came out at 9.72 ± 5.6%.
For `O=C(O)c1ccccc1Nc1cccc(OCc2ccc3ccccc3n2)c1`, the “percent Bodipy-positive cells” value under setting [2] is 11 ± 1.4%.
On to `O=C(O[C@@H]1C[C@@H]2C[C@H]3C[C@H](C1)N2CC3=O)c1c[nH]c2ccccc12`, for which the “percent Bodipy-positive cells” value (library stock concentration: 10.4 mM) is 9.71 ± 2%.
For the compound `O=C(O[C@@H]1C[C@@H]2C[C@H]3C[C@H](C1)N2CC3=O)c1c[nH]c2ccccc12` [Dolasetron], for the setting “library stock concentration: 6.2 mM”, the “percent Bodipy-positive cells” value turned out to be 7.05 ± 1.3%.
As to `CC(=O)NCCc1c(Cc2ccccc2)[nH]c2ccccc12` [Luzindole], the “percent Bodipy-positive cells” value under setting [2] came out at 6.34 ± 1.1%.
Still for that read-out and setting: for `CC(C)(C)NC(=O)[C@@H]1CN(Cc2cccnc2)CCN1C[C@@H](O)C[C@@H](Cc1ccccc1)C(=O)N[C@H]1c2ccccc2C[C@H]1O` the value was 7.96 ± 1.5%; for `CC(O)CC(C)(C)O` (stereo not drawn), 31.2 ± 1.6%; for `COc1ccc2cc1Oc1ccc(cc1)C[C@H]1c3c(cc4c(c3Oc3cc5c(cc3OC)CCN(C)[C@@H]5C2)OCO4)CCN1C` [Cepharanthine], 99.593 ± 0.058%.
As to `COc1cc(C(O)C(=O)O)ccc1O` (stereo not drawn), under setting [2], the “percent Bodipy-positive cells” value is 54.5 ± 12%.
On to `CN(C)CC=CC(=O)Nc1cc2c(Nc3ccc(F)c(Cl)c3)ncnc2cc1OC1CCOC1` (stereo not drawn), for which the “percent Bodipy-positive cells” value under setting [6] came out at 80.7 ± 3%.
`c1ccc(Cn2c(-c3ccc(OCC(C4CCNCC4)n4c(-c5ccccc5)nc5ccccc54)cc3)nc3ccccc32)cc1` (stereo not drawn) [Deltarasin]: the “percent Bodipy-positive cells” value reads like this: under setting [1], 94.94 ± 0.12%; under setting [2], 99.33 ± 0.94%.
In the case of `O=C(Nc1ccc(C(F)(F)F)cn1)N1CCN(c2ncccc2C(F)(F)F)CC1`, the “percent Bodipy-positive cells” value under setting [2] was determined as 9.05 ± 0.77%.
Take `CCOC(=O)c1ccc(O)cc1` [Ethyl paraben]: under “library stock concentration: 12 mM”, the “percent Bodipy-positive cells” value worked out at 2.91 ± 1.2%.
In the case of `CC(=O)O[C@H]1Cc2ccccc2N(C(N)=O)c2ccccc21`, the “percent Bodipy-positive cells” value under setting [2] amounted to 15.8 ± 2.7%.
As to `CCCCCCC[C@H](O)/C=C/[C@H]1[C@H](O)CC(=O)[C@@H]1C/C=C\CCCC(=O)O` [20-ethyl Prostaglandin E2], under setting [3], the “percent Bodipy-positive cells” value was 18.5 ± 7%.
For `COC(=O)Nc1nc2cc(C(=O)c3ccc(F)cc3)ccc2[nH]1`, the “percent Bodipy-positive cells” value under setting [2] turned out to be 99.1 ± 1.3%.
Regarding `COC(=O)Nc1nc2cc(C(=O)c3ccc(F)cc3)ccc2[nH]1` [Flubendazole], the “percent Bodipy-positive cells” value (library stock concentration: 6.4 mM) is 80.5 ± 0.94%.
For `Cc1ccc(-n2[nH]c(C)c(N=Nc3cccc(-c4cccc(C(=O)O)c4)c3O)c2=O)cc1C` [Eltrombopag], the “percent Bodipy-positive cells” value reads like this: under setting [1], 2.87 ± 0.43%; under setting [2], 6.51 ± 1%.
As for `COc1cc(OC)cc(-c2ccc3ncc4ccc(=O)n(-c5ccc(N6CCNCC6)c(C(F)(F)F)c5)c4c3c2)c1`, the “percent Bodipy-positive cells” value reads like this: under setting [4], 7.05 ± 0.13%; under setting [5], 35.2 ± 3.2%; under setting [6], 72 ± 12%; under setting [2], 97.76 ± 0.6%.
Turning to `COc1cc2ncnc(Nc3cccc(O)c3)c2cc1OC` [WHI-P180, Hydrochloride], the “percent Bodipy-positive cells” value under setting [1] amounted to 13.3 ± 1.3%.
On to `O=C1CCc2c(ccc3ccccc23)O1` [Splitomicin], for which the “percent Bodipy-positive cells” value under setting [2] came out at 8.29 ± 3.2%.
For the compound `CC[C@@H]1C(=O)N(C)c2cnc(Nc3ccc(C(=O)NC4CCN(C)CC4)cc3OC)nc2N1C1CCCC1`, the “percent Bodipy-positive cells” value is, setting by setting: under setting [4], 18 ± 5.6%; under setting [5], 57.1 ± 4.8%; under setting [1], 100%; under setting [2], 99.5% and 97.4% and 100%.
Regarding `COc1cc2c(Nc3ccc(Br)cc3F)ncnc2cc1OCC1CCN(C)CC1` [Vandetanib (ZD6474)], under setting [1], the “percent Bodipy-positive cells” value was found to be 95.6 ± 2.3%.
`O=C1c2ccccc2C(Cc2ccncc2)(Cc2ccncc2)c2ccccc21` [XE 991 dihydrochloride]: the “percent Bodipy-positive cells” value under setting [2] was 9.34 ± 1.3%.
For the compound `O=C(NCCN1CCC(n2c(=O)[nH]c3cc(Cl)ccc32)CC1)c1ccc(F)cc1` [Halopemide], under setting [3], the “percent Bodipy-positive cells” value was found to be 15.5 ± 6.3%.
Regarding `O=S(=O)(c1cccc2c(Cl)cccc12)N1CCCNCC1`, the “percent Bodipy-positive cells” value (library stock concentration: 15.4 mM) turned out to be 91.6 ± 1.6%.
On to `CNCCc1c[nH]c(CCC(c2ccccc2)c2ccccc2)n1.O=C(O)C(=O)O.O=C(O)C(=O)O` [N-Methylhistaprodifen dioxalate salt], for which, under setting [2], the “percent Bodipy-positive cells” value was 100%.
Turning to `Cc1c(OCC(F)(F)F)ccnc1C[S+]([O-])c1nc2ccccc2[nH]1` (stereo not drawn) [Lansoprazole], the “percent Bodipy-positive cells” value turned out to be 8.05 ± 1%. For the same compound, under setting [1], the “percent Bodipy-positive cells” value is 14.7 ± 11%. Further, the “percent Bodipy-positive cells” value (library stock concentration: 5.4 mM) came to 11.48 ± 0.071%.
As to `[N-]=[N+]=Nc1ccc(C(=O)CSC[C@H](NC(=O)CC[C@H](N)C(=O)O)C(=O)NCC(=O)O)cc1` [S-(p-Azidophenacyl)glutathione], under setting [2], the “percent Bodipy-positive cells” value worked out at 38.4 ± 9.6%.
Turning to `CC(C)(C)NCC(O)c1ccc(O)c(CO)c1` (stereo not drawn) [Salbutamol], the “percent Bodipy-positive cells” value is 24.5 ± 0.45%.
Consider `CC(C)(C)NCC(O)c1ccc(O)c(CO)c1` (stereo not drawn), for which the “percent Bodipy-positive cells” value under setting [2] was determined as 5.84 ± 0.098%.
On to `CC(C)(C)NCC(O)c1ccc(O)c(CO)c1` (stereo not drawn) [Albuterol hemisulfate], for which the “percent Bodipy-positive cells” value under setting [2] came out at 25.4 ± 5.2%.
Take `Nc1nc2c(nc(O)n2[C@@H]2O[C@H](CO)[C@@H](O)[C@H]2O)c(=O)[nH]1` [8-hydroxy Guanosine]: the “percent Bodipy-positive cells” value under setting [3] was determined as 11.5 ± 3.5%.
For the compound `CO[C@H]1C[C@@H]2CC[C@@H](C)[C@@](O)(O2)C(=O)C(=O)N2CCCC[C@H]2C(=O)O[C@H]([C@H](C)C[C@@H]2CC[C@@H](OP(C)(C)=O)[C@H](OC)C2)CC(=O)[C@H](C)/C=C(\C)[C@@H](O)[C@@H](OC)C(=O)[C@H](C)C[C@H](C)/C=C/C=C/C=C/1C` [Ridaforolimus (Deforolimus, MK-8669)], the “percent Bodipy-positive cells” value by setting is: under setting [1], 3.01 ± 1.9%; under setting [2], 17.4 ± 1.7%.
Turning to `CCCCC[C@H](O)CC(=O)CCc1ccc(O)c(OC)c1` [6-Gingerol], the “percent Bodipy-positive cells” value (library stock concentration: 17 mM) amounted to 11 ± 1.2%.
For the compound `COc1cc2ncnc(Nc3cc(Br)c(O)c(Br)c3)c2cc1OC`, the “percent Bodipy-positive cells” value reads like this: under setting [4], 7.32 ± 3.3%; under setting [5], 9.61 ± 3.6%; under setting [6], 8.72 ± 3.1%; under setting [2], 4.53 ± 0.57%.
In the case of `CCn1c(=O)n(C2=C(CO)CN(CC3CCCCCCC3)CC2)c2ccccc21`, under setting [2], the “percent Bodipy-positive cells” value came to 20.6 ± 7.4%.
Consider `CCCCCCCC/C=C\CCCCCCCC(=O)O` [Oleic Acid], for which the “percent Bodipy-positive cells” value turned out to be 8.78 ± 1.2% under setting [3] and 47 ± 9.4% under setting [2].

The values are drawn from the supplement of paper PMC9135407.
